Results are given in words; binding and its absence hold for the method and conditions named. Some binding calls cover weakened binding; strength is not graded here.
Target: Androgen receptor (AR), endogenous (human) (UniProt P10275)
Assay: anti-HA immunoprecipitation from nuclear extracts of LNCaP cells treated with 100 nM THZ1 for 12 h, immunoblot for AR (FIG. 19D)

By UniProt entry, the sequences of proteins in these tests, tags left out. Where a name states a change or a piece, a line headed by the entry shows the natural chain unless it says otherwise.
UniProt P10275: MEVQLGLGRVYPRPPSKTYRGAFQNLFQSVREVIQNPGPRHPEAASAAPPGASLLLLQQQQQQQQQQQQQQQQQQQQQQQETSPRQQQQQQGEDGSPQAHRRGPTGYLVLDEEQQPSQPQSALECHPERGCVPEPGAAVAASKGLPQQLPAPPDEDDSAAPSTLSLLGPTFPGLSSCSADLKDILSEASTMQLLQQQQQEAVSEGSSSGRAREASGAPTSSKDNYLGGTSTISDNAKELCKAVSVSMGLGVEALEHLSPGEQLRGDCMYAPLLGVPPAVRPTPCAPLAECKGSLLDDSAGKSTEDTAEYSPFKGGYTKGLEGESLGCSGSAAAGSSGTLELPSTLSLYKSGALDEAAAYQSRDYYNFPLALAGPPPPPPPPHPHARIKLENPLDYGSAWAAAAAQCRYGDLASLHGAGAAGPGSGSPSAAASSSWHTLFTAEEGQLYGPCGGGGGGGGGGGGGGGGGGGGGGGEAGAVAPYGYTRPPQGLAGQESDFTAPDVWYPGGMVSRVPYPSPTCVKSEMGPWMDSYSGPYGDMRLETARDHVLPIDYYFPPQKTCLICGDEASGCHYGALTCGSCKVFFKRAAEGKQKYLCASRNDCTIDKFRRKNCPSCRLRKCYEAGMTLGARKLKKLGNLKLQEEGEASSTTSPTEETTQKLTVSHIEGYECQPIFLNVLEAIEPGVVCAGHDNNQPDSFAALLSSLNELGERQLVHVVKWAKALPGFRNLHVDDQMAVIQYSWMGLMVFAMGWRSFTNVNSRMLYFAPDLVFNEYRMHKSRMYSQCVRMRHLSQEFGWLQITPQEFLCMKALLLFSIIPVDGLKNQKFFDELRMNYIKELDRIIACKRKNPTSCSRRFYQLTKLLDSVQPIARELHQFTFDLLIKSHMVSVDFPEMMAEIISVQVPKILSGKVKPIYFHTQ
UniProt Q15648: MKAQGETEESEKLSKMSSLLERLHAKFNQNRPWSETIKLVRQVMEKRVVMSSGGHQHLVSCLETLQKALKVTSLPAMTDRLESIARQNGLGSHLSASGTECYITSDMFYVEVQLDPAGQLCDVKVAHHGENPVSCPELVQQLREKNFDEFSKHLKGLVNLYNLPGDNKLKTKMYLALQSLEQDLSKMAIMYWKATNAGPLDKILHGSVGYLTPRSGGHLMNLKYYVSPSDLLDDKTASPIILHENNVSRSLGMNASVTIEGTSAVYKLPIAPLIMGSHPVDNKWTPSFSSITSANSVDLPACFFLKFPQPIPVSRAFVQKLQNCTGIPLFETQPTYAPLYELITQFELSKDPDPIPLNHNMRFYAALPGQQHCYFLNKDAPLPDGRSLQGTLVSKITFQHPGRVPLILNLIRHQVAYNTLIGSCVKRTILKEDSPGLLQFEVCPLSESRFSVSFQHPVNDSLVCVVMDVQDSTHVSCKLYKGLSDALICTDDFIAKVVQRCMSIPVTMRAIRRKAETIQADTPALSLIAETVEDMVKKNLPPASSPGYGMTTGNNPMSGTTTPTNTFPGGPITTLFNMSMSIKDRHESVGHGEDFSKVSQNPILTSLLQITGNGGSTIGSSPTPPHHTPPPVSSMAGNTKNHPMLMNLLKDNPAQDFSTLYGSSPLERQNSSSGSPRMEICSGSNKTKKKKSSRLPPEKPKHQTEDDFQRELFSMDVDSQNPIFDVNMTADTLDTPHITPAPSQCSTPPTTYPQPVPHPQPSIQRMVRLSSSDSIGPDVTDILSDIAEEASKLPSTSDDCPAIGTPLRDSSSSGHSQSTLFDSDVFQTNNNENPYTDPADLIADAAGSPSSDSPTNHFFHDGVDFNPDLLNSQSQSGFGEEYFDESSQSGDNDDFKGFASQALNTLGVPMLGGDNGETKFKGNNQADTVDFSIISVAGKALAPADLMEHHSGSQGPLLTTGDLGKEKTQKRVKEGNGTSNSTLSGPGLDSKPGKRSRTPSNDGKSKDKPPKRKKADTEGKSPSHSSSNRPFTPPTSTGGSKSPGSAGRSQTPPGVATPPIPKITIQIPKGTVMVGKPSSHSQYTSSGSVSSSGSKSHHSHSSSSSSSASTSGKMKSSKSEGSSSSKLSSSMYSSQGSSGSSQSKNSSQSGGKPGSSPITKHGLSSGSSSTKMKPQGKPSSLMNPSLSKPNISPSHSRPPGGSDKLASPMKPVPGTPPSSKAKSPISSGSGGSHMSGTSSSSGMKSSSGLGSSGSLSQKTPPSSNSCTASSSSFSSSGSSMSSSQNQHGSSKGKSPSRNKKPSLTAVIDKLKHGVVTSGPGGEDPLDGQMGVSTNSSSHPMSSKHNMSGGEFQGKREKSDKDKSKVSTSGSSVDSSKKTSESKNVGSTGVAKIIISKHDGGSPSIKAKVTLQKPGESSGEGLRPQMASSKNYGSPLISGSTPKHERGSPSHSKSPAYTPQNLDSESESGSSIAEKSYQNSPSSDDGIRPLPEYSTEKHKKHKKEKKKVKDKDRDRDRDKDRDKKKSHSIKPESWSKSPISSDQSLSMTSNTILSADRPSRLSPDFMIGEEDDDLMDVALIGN

For “HA-tagged MED1 T1457D phosphomimic (from UniProt Q15648 1-1581)”, the binding was “binds”.

— patent publication US20220288067A1 (University of Pennsylvania, published 2022)
